No constants are given. Whether binding was seen depends on the method and setting. Binding seen in cells or lysates may run through a third protein. A yes stands for co-enrichment or nearness to the bait. Other partners may have been found.

Chains of the proteins cited; added tags and fusions are not shown. Residues count along the entry.
UniProt Q9QUG3, residues 26-155: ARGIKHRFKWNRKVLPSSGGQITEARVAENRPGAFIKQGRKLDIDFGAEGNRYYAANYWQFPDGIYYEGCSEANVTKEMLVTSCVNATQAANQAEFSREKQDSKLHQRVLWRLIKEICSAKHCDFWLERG

The target in assay [1] is FLAG-Dpl (mouse) (UniProt Q9QUG3). The experiment in a line: affinity purification with mass spectrometry.
For assay [2] the target is unchanged. Description: affinity purification with mass spectrom.

B1: endogenous wt Sho (protein, UniProt Q8BWU1 25-122)
chain: KGGRGGARGSARGVRGGARGASRVRVRPAPRYGSSLRVAAAGAAAGAAAGVAAGLATGSGWRRTSGPGELGLEDDENGAMGGNGTDRGVYSYWAWTSG
B1: the binding entry in assay [1] is “binds”.

B2: metal ion transporter ZIP10 (protein, UniProt Q6P5F6 26-833)
chain: HEDHDHGPEELHRHHRGMTESESSKFSVQDAENEKKYYIEKLFDRYGENGRLSFFGLEKLLTNLGLGEIKVVEINHEDLGHDHVSHLDILAVQEGKHFHSHTHQHFHNHLNAENHTTTSVTSKRNHKCDPEKEAAELPIKADDKHLHDRNHRFHHRHRLHHHLDHNTTRHVHNDSVAHSEHGEPGHSPSPETNKTQEQSEVKSVKVRRKEKGKRKKENSEVNTPGFLPNHDHSEQYEHNRVHKLDRVHSPGHPHAHLPEHSGHELGHGHQELDPDNEGELRHTRKREAPHVRKSAIYSTPSHKDQSEDDRQHECLNVTQLLKHFGLGPNSPISPDLFTYLCPALLYQIDSRLCIEHFDKLLVEDLNKDKTLVPEDKTNIGASAWICGIISITVISLLSLLGVILVPIINQGCFKFLLTFLVALAVGTMSGDALLHLLPHSQGGHDHSHQHTHGHGHSHGHESKEFLEEYDAVLKGLVALGGIYLLFIIEHCIRMFKHYKQQRGKQKWFMKQSTEESTIGRKLSDHKLNSTPDADWLQLKPLAGTDDSVVSEDRLNETELTDLEAQQESPPKNYLGVEEEKIMDHSHSDGLHTIHEHEVHVTSHNHHDEDKAVLRKHSHQWHHRHAHHSHGPCHSGSDLKETGIANIAWMVIMGDGIHNFSDGLAIGAAFSAGLTGGISTSIAVFCHELPHELGDFAVLLKAGMTVKQAIVYNLLSAMMAYIGMLIGTAVGQYANNITLWIFAITAGMFLYVALVDMLPEMLHGDGDHEEHGFCPVGQFILQNLGLLFGFAIMLVIALYEDKIVFDIQF
In the case of B2, the binding result in assay [2] is “binds”.

B3: family with sequence similarity 3, member C (protein, UniProt Q91VU0 25-227)
chain: QVFEIKMDASLGNLFARSALDSAIRSTKPPRYKCGISKACPEKHFAFKMASGAANVVGPKICLEDNVLMSGVKNNVGRGINIALVNGKTGEVIDTKFFDMWGGDVAPFIEFLKTIQDGTVVLMATYDDGATKLTDEARRLIAELGSTSITSLGFRDNWVFCGGKGIKTKSPFEQHIKNNKETNKYEGWPEVVEMEGCIPQKQD
Regarding B3, in assay [2], the binding entry is recorded as “binds”.

B4: ectonucleotide pyrophosphatase/phosphodiesterase 3 (protein, UniProt Q6DYE8 1-874)
chain: MDSRLALATEEPIKKDSLKKYKILCVVLLALLVIVSLGLGLGLGLRKPEEQGSCRKKCFDSSHRGLEGCRCDSGCTGRGDCCWDFEDTCVKSTQIWTCNLFRCGENRLETALCSCADDCLQRKDCCADYKTVCQGESPWVTEACASSQEPQCPPGFDLPPVILFSMDGFRAEYLQTWSTLLPNINKLKTCGIHSKYMRAMYPTKTFPNHYTIVTGLYPESHGIIDNNMYDVHLNKNFSLSSVEKSNPAWWSGQPIWLTAMYQGLKAACYYWPGSDVAVNGSFPTIYRNYSNSVPYERRITTLLQWLDLPKADRPSFYTIYVEEPDSAGHSSGPVSAGVIKALQSVDNAFGMLMEGLKQRNLHNCVNIIVLADHGMDQTSCDRVEYMTDYFPKINFYMYQGPAPRIRTRNIPQDFFTFNSEEIVRNLSCRKPDQHFKPYLTPDLPKRLHYAKNVRIDKAHLMVDRQWLAFRSKGSSNCGGGTHGYNNEFKSMEAIFLAHGPSFIEKTVIEPFENIEVYNLLCDLLHIEPAPNNGTHGSLNHLLKTPFYKPSHAGELSTPADCGFTTPLPTDPLDCSCPALQNTPGLEEQANQRLNLSEGEVAATVKANLPFGRPRVMQKNGDHCLLYHRDYISGYGKAMKMPMWSSYTVLKPGDTSSLPPTVPDCLRADVRVAPSESQKCSFYLADKNITHGFLYPAIKGTNESRYDALITSNLVPMYKEFKKMWDYFHEVLLIKYAIERNGLNVVSGPIFDYNYDGHFDAPDEITQYVAGTDVPIPTHYFVVLTSCKDQTHTPDSCPGWLDVLPFIVPHRPTNIESCSENKTEDLWVEERFQAHAARVRDVELLTGLDFYQEKAQPVSQILQLKTYLPTFETII
For B4, in assay [2], the binding result was “binds”.

B5: complement component 1, q subcomponent binding protein (protein, UniProt O35658 71-278)
chain: LHTEGDKAFVEFLTDEIKEEKKIQKHKSLPKMSGDWELEVNGTEAKLLRKVAGEKITVTFNINNSIPPTFDGEEEPSQGQKAEEQEPERTSTPNFVVEVTKTDGKKTLVLDCHYPEDEIGHEDEAESDIFSIKEVSFQATGDSEWRDTNYTLNTDSLDWALYDHLMDFLADRGVDNTFADELVELSTALEHQEYITFLEDLKSFVKNQ
In the case of B5, the binding entry in assay [2] is given as “binds”.

B6: brain abundant, membrane attached signal protein 1 (protein, UniProt Q91XV3 1-226)
chain: MGGKLSKKKKGYNVNDEKAKDKDKKAEGAGTEEEGTPKESEPQAAADATEVKESTEEKPKDAADGEAKAEEKEADKAAAAKEEAPKAEPEKSEGAAEEQPEPAPAPEQEAAAPGPAAGGEAPKAGEASAESTGAADGAAPEEGEAKKTEAPAAAGPEAKSDAAPAASDSKPSSAEPAPSSKETPAASEAPSSAAKAPAPAAPAAAEPQAEAPAAAASSEQSVAVKE
Turning to B6, the binding result in assay [2] is reported as “binds”.

B7: calnexin precursor (protein, UniProt P35564 21-591)
chain: HDGHDDDAIDIEDDLDDVIEEVEDSKSKSDASTPPSPKVTYKAPVPTGEVYFADSFDRGSLSGWILSKAKKDDTDDEIAKYDGKWEVDEMKETKLPGDKGLVLMSRAKHHAISAKLNKPFLFDTKPLIVQYEVNFQNGIECGGAYVKLLSKTAELSLDQFHDKTPYTIMFGPDKCGEDYKLHFIFRHKNPKTGVYEEKHAKRPDADLKTYFTDKKTHLYTLILNPDNSFEILVDQSVVNSGNLLNDMTPPVNPSREIEDPEDRKPEDWDERPKIADPDAVKPDDWDEDAPSKIPDEEATKPEGWLDDEPEYIPDPDAEKPEDWDEDMDGEWEAPQIANPKCESAPGCGVWQRPMIDNPNYKGKWKPPMIDNPNYQGIWKPRKIPNPDFFEDLEPFKMTPFSAIGLELWSMTSDIFFDNFIISGDRRVVDDWANDGWGLKKAADGAAEPGVVLQMLEAAEERPWLWVVYILTVALPVFLVILFCCSGKKQSNAMEYKKTDAPQPDVKDEEGKEEEKNKRDEEEEEEKLEEKQKSDAEEDGVTGSQDEEDSKPKAEEDEILNRSPRNRKPRRE
For the molecule B7, the binding result in assay [2] is listed as “binds”.

B8: protein disulfide isomerase associated 6 (protein, UniProt Q922R8 20-440)
chain: LYSSSDDVIELTPSNFNREVIQSDGLWLVEFYAPWCGHCQRLTPEWKKAATALKDVVKVGAVNADKHQSLGGQYGVQGFPTIKIFGANKNKPEDYQGGRTGEAIVDAALSALRQLVKDRLGGRSGGYSSGKQGRGDSSSKKDVVELTDDTFDKNVLDSEDVWMVEFYAPWCGHCKNLEPEWAAAATEVKEQTKGKVKLAAVDATVNQVLASRYGIKGFPTIKIFQKGESPVDYDGGRTRSDIVSRALDLFSDNAPPPELLEIINEDIAKKTCEEHQLCVVAVLPHILDTGAAGRNSYLEVLLKLADKYKKKMWGWLWTEAGAQYELENALGIGGFGYPAMAAINARKMKFALLKGSFSEQGINEFLRELSFGRGSTAPVGGGSFPTITPREPWDGKDGELPVEDDIDLSDVELDDLEKDEL
B8: in assay [2], the binding entry is given as “binds”.

B9: hypoxia up-regulated 1 (protein, UniProt Q9JKR6 33-999)
chain: LAVMSVDLGSESMKVAIVKPGVPMEIVLNKESRRKTPVTVTLKENERFLGDSAAGMAIKNPKATLRYFQHLLGKQADNPHVALYRSRFPEHELIVDPQRQTVRFQISPQLQFSPEEVLGMVLNYSRSLAEDFAEQPIKDAVITVPAFFNQAERRAVLQAARMAGLKVLQLINDNTATALSYGVFRRKDINSTAQNVMFYDMGSGSTVCTIVTYQTVKTKEAGMQPQLQIRGVGFDRTLGGLEMELRLREHLAKLFNEQRKGQKAKDVRENPRAMAKLLREANRLKTVLSANADHMAQIEGLMDDVDFKAKVTRVEFEELCADLFDRVPGPVQQALQSAEMSLDQIEQVILVGGATRVPKVQEVLLKAVGKEELGKNINADEAAAMGAVYQAAALSKAFKVKPFVVRDAVIYPILVEFTREVEEEPGLRSLKHNKRVLFSRMGPYPQRKVITFNRYSHDFNFHINYGDLGFLGPEDLRVFGSQNLTTVKLKGVGESFKKYPDYESKGIKAHFNLDESGVLSLDRVESVFETLVEDSPEEESTLTKLGNTISSLFGGGTSSDAKENGTDAVQEEEESPAEGSKDEPAEQGELKEEAEPPAEETSQPPPSEPKGDAAREGEKPDEKESGDKPEAQKPNEKGQAGPEGAAPAPEEDKKPKPARKQKMVEEIGVELAVLDLPDLPEDELARSVQKLEELTLRDLEKQEREKAANSLEAFIFETQDKLYQPEYQEVSTEEQREEISGKLSATSTWLEDEGFGATTVMLKDKLAELRKLCQGLFFRVEERRKWPERLSALDNLLNHSSIFLKGARLIPEMDQVFTEVEMTTLEKVINDTWAWKNATLAEQAKLPATEKPVLLSKDIEAKMMALDREVQYLLNKAKFTKPRPRPKDKNGTRAEPPLNASAGDQEEKVIPPAGQTEEAKPILEPDKEETGTEPADSEPLELGGPGAGPEQEEQSAGQKRPSKNDEL
Regarding B9, the binding result in assay [2] is “binds”.

B10: transmembrane emp24 transport domain containing 9 (gp25L2) (protein, UniProt Q99KF1 38-235)
chain: LYFHIGETEKKCFIEEIPDETMVIGNYRTQLYDKQREEYQPATPGLGMFVEVKDPEDKVILARQYGSEGRFTFTSHTPGEHQICLHSNSTKFSLFAGGMLRVHLDIQVGEHANDYAEIAAKDKLSELQLRVRQLVEQVEQIQKEQNYQRWREERFRQTSESTNQRVLWWSILQTLILVAIGVWQMRHLKSFFEAKKLV
Regarding B10, the binding entry in assay [2] was “binds”.

B11: metal ion transporter ZIP6 (protein, UniProt Q8C145 21-765)
chain: LHELQSTAAFSQTTEKINSNWEPGVNVDLAVTMQRHHLQQLFYRYGENDSLSVEGFRKLLQNIGIDKIKRVHIHHDHEHHADHEHHSDHEHHSDHEHHSDHEHHSDHEHHSDHEHHSHRSHTVAGKNNRKAFCPDLDSDNSGKNPRTSLGKGSRPAEHMNGRRNIKESASSSEVTSAVYNAVSEGTRFVETIETPKPGRRTKDVNPSTPPSITEKSRVGRLSRLARKKSNESVSEPRKSFMYSRNTNDNIQECFNTTKLLTSHGMSIQALLNATEFNYLCPAIINQIDARACLIHTASEKKAEIPPKTYSLQIAWLGGFIAISIISFLSLLGVILVPLMNRVFFKFLLSFLVALAVGTLSGDALLHLLPHSHASHQHSHSHEEPAMEMKRGPLFSHLSAQNIEESSYFDSTWKGLTALGGLYFMFLVEHVLTLIKQFKDKKKKNQKKPENDEDVESKKQLSKYDSQLSSNEEKVDPGERPESYLRADSQEPSPFDSQQPTMLEEEEVMIAHAHPQEVYNEYVPRGCKNKCHSHFHDTLGQSDDLIHHHHDYHHILHHHHHQNHHPHSHSQRYSREELKDAGIATLAWMVIMGDGLHNFSDGLAIGAAFTEGLSSGLSTSVAVFCHELPHELGDFAVLLKAGMTVKQAVLYNALSAMLAYLGMATGIFIGHYAENVSMWIFALTAGLFMYVALVDMVPEMLHNDASDHGCSRWGYFFLQNAGILLGFGIMLLISIFEHKIVFRINF
As to B11, the binding result in assay [2] is recorded as “binds”.

The record behind these values is publication PMC2749441.
